AC50 data for 63 molecules are collected here from PubChem BioAssay AID493014 (National Center for Advancing Translational Sciences (NCATS), 2011).

This is one part of the list. The main result of the screen is listed elsewhere. These columns were measured beside it and carry no call. Compounds called inactive in the main read-out are mostly missing here. The note in brackets gives the kind of curve behind each potency; many fits are weak.

A word on the AC50: it is the midpoint of the concentration-response curve, whichever way the signal moves.

The experiment is described as follows: qHTS Assay to Find Inhibitors of Chronic Active B-Cell Receptor Signaling. The note with it: ABC-DLBCL IkBa-CBG/CBR reporter, luminescence ratio (green luciferase fused to IkBa over red control in TMD8 lymphoma cells), 4 h. The procedure, abridged: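 TMD8 ABC-DLBCL cells carrying doxycycline-inducible green luciferase fused to IkappaBalpha plus unfused red luciferase were exposed to compounds (up to 46 uM) for 4 hrs at 37C. Activity came from the overlap-corrected green/red luminescence ratio.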

The mark [1] stands for this setting: measured here: CBR red luminescence, cell number.
Where [2] appears, read: measured here: IkBa-CBG green luminescence.

Consider `O=C(CN(C(=O)CNC(=O)c1ccco1)c1ccc(Cl)c(Cl)c1)NC1CCCCC1`, for which, under setting [1], the AC50 is 11.2 µM [falling, partial curve, poor fit].

For the molecule `CC(C)c1ccc(C2C3=C(COC3=O)Nc3cc4c(cc32)OCO4)cc1` (stereo unspecified), the AC50 by setting is: under setting [1], 2 µM [rising, full curve]; under setting [2], 2.24 µM [falling, full curve]. For `CCOc1cc(/C=N/NC(=O)CSc2cccc3cccnc23)ccc1O`, under setting [1], the AC50 was 17.8 µM [falling, single point]. On to `Cc1ccccc1NC(=O)COC(=O)CN1C(=O)NC(C)(C)C1=O`, for which the AC50 under setting [1] is 7.31 µM [rising, partial curve, poor fit].

For `CCN(CC)c1ccc(NC(=O)c2ccc(=O)[nH]c2)cc1S(=O)(=O)Nc1ccccc1OC`, the AC50 under setting [2] was 15.8 µM [falling, partial curve, poor fit].

As to `NC1=NC(=O)/C(=C\c2ccsc2)S1`, the AC50 under setting [1] is 35.5 µM [falling, single point].

For `O=C(O)c1cccc(Cn2c(Cl)c(/C=N/NC(=O)c3cc4ccccc4cc3O)sc2=O)c1`, the half-maximal activity concentration (AC50) under setting [1] is 11.2 µM [falling, single point]. On the same count and under the same terms, under `O=C(N/N=C/c1ccc(O)cc1)Nc1cccc2nsnc12` stands 15.8 µM [falling, single point]. The same measure, in the same setting: the value for `Clc1cccc(N=C2NN=C(c3ccc4c(c3)OCCO4)CS2)c1` was 16.4 µM [falling, single point]. As to `O=C(Nc1ccccc1C(F)(F)F)N1CCN(c2ccc3nncn3n2)CC1`, under setting [1], the AC50 is 29.1 µM [falling, single point]. Same read-out and setting: the value for `Cn1c2ccccc2c2cnn(CC(=O)Nc3ccccc3Br)c(=O)c21` was 15.8 µM [rising, partial curve, poor fit]. On to `O=C(CCl)N=c1sccn1Cc1ccccc1Cl`, for which the AC50 under setting [1] was 11.2 µM [falling, partial curve]. For the molecule `CC(C)(C)N/N=C1\CC(c2ccccc2)Oc2ccccc21` (stereo unspecified), under setting [1], the AC50 is 0.259 µM [rising, full curve]. On to `CCCCC(=O)OCc1c(-c2cccc(OC)c2)ncc2ccccc12`, for which, under setting [1], the AC50 is 10.3 µM [falling, partial curve]. Consider `N#Cc1ccc(NC(=O)c2cc(-c3cccs3)on2)cc1`, for which the AC50 under setting [1] was 3.98 µM [rising, partial curve, poor fit]. Still for that read-out and setting: under `CCCn1ccc2c(OCC(=O)Nc3ccc(F)cc3F)cccc2c1=O` stands 3.16 µM [falling, partial curve, poor fit]. Turning to `Cc1cccc(OCC(=O)Nc2ccc3c(c2)N(C)C(=O)c2ccccc2S3)c1`, the AC50 under setting [1] was 14.1 µM [falling, partial curve, poor fit].

Consider `COc1cccc(C(=O)NNC(=O)C(=O)Nc2cccc(Cl)c2C)c1`, for which the AC50 under setting [1] is 14.1 µM [falling, partial curve].

Regarding `O=C(c1ccco1)N1CCN(Cc2c(Cl)cccc2Cl)CC1`, the AC50 under setting [1] was 10 µM [rising, partial curve, poor fit]. Same read-out and setting: the value for `COC(=O)/C(C#N)=C1/C=Cc2ccccc2N1` was 2.51 µM [falling, full curve, poor fit]; that for `Clc1ccccc1OCc1nc(-c2ccc(Br)o2)no1` was 0.411 µM [rising, full curve, poor fit]. `Cc1cc(Cl)cc(Cl)c1OCCOc1cccc2cccnc12`: the AC50 under setting [1] was 1.3 µM [rising, partial curve]. For the molecule `Cc1ccccc1C1c2[nH]c3ccccc3c2CCN1Cc1cccn1-c1ncccn1` (stereo unspecified), under setting [1], the AC50 was 17.8 µM [falling, single point].

Turning to `COc1cc(/C=N/N=C(\N)c2nonc2N)ccc1O`, the AC50 under setting [1] was 11.2 µM [falling, partial curve, poor fit]. The same measure, in the same setting: the value for `Cc1sc2c(c1C)CN(Cc1ccncc1)CN2C(=O)c1ccco1` was 20.6 µM [falling, single point]; that for `CCn1c(O)c(C=C2N=c3ccccc3=N2)sc1=S` was 5.62 µM [falling, single point]. `CCOC(=O)c1cc(C)sc1NC(=O)CN1CCN(C(=O)c2ccco2)CC1`: the AC50 under setting [1] was 3.16 µM [rising, partial curve, poor fit]. Regarding `CCc1ccc(CN(C)CC(=O)Nc2ccccc2[N+](=O)[O-])cc1`, under setting [1], the AC50 is 23.1 µM [rising, single point].

`CCN1CCN(C(=O)C(C)Oc2ccc(S(=O)(=O)N3CCCC3)cc2C(N)=O)CC1` (stereo unspecified): the AC50 under setting [1] was 25.9 µM [rising, single point]. As to `CN(C)CC1CCCCC1OC(=O)c1ccc(S(=O)(=O)N(C)c2ccccc2)cc1` (stereo unspecified), under setting [1], the AC50 is 2 µM [falling, full curve, poor fit]. In the case of `C[C@@H](C(=O)NCc1ccccc1)[C@H]1C[C@]1(C)[C@H](NC(=O)OCc1ccccc1)c1ccccc1`, the AC50 under setting [1] was 29.1 µM [falling, single point]. Consider `Oc1ccccc1C(=S)N1CCN(C(=S)c2ccccc2O)CC1`, for which, under setting [1], the AC50 is 11.2 µM [falling, single point]. On to `Cc1ccc(/C=N/NC(=O)c2ccc(-n3cnnn3)cc2)cc1`, for which the AC50 under setting [1] was 14.6 µM [falling, partial curve, poor fit].

In the case of `O=C(Cc1ccc(-c2ccccc2)cc1)NNC(=S)NCc1ccco1`, under setting [1], the AC50 is 6.31 µM [rising, partial curve, poor fit].

As for `COc1ccc(C2=NN(C(=O)c3cccs3)C(c3ccccc3OC)C2)cc1OC` (stereo unspecified), the AC50 under setting [1] was 11.2 µM [falling, partial curve, poor fit]. The same measure, in the same setting: under `CCC(=O)c1ccccc1OCCCN1C(=O)NC(C)(C)C1=O` stands 6.51 µM [rising, single point]. Consider `Cn1c(=O)c2[nH]c(N3CCN(c4cccc(O)c4)CC3)nc2n(C)c1=O`, for which the AC50 by setting is: under setting [1], 0.355 µM [falling, full curve, poor fit]; under setting [2], 2 µM [rising, partial curve, poor fit].

As for `Cc1cc(C)c(S(=O)(=O)N(C)CC(=O)NCc2ccncc2)c(C)c1`, the AC50 under setting [1] was 0.794 µM [rising, full curve, poor fit]. On the same count and under the same terms, the value for `CCCc1nc(SCC(=O)Nc2ccc(N3CCOCC3)cc2)c2ccccc2n1` was 29.1 µM [rising, single point]. The same measure, in the same setting: under `NC(=O)c1ccccc1NC(=O)/C=C/C(=O)O` stands 11.6 µM [rising, partial curve, poor fit]; under `CCSc1nc2sc3c(c2c(=O)[nH]1)CCc1ccccc1-3`, 5.8 µM [falling, partial curve, poor fit]. As to `O=C(CCNc1ccc(Cc2ccncc2)cc1)c1ccc([N+](=O)[O-])cc1`, the AC50 under setting [1] is 25.1 µM [falling, single point]. On the same count and under the same terms, the value for `CC(C)C1CC(CCN)(Cc2ccccc2)CCO1` (stereo unspecified) was 0.316 µM [rising, full curve, poor fit]; that for `COc1ccccc1N1CCN(CC(=O)Nc2ccc(Cl)c(C(F)(F)F)c2)CC1` was 18.4 µM [falling, single point]. Still for that read-out and setting: under `CC(C)(C)c1ccc2c(c1)OC(C(=O)N/N=C\c1ccccn1)CO2` (stereo unspecified) stands 32.6 µM [falling, partial curve, poor fit]. As for `COC(=O)c1ccc2c(=O)n(CCCCCC(=O)NCc3ccc4c(c3)OCO4)c(=O)[nH]c2c1`, the AC50 under setting [1] is 23.1 µM [falling, single point]. Same read-out and setting: under `O=C(Nc1ccc(F)cc1)c1cccc(N2C(=O)C3C4CCC(C4)C3C2=O)c1` (stereo unspecified) stands 29.1 µM [falling, partial curve, poor fit]. On the same count and under the same terms, the value for `Oc1cccc(/C=N/NC(=S)NCCN2CCOCC2)c1O` was 11.2 µM [falling, partial curve].

Take `O=C(N/N=C1/C(=O)c2cccc3cccc1c23)c1ccc(Cl)cc1`: the AC50 under setting [1] is 8.2 µM [falling, partial curve, poor fit]. Still for that read-out and setting: under `COc1ccc(-c2csc3nc(C(C)(C)C)oc(=O)c23)cc1OC` stands 35.5 µM [falling, single point]. Still for that read-out and setting: under `COc1ccc2c(C(=O)CCl)c[nH]c2c1` stands 12.6 µM [falling, partial curve, poor fit]. Still for that read-out and setting: the value for `COc1ccc(CCNC(=O)C(=O)NCC2OCCN2S(=O)(=O)c2ccc(Br)cc2)cc1` (stereo unspecified) was 0.00461 µM [rising, full curve, poor fit]. As for `CCc1cc(=O)oc2cc(C)cc(OCC(=O)NCc3ccccn3)c12`, under setting [1], the AC50 is 0.0794 µM [rising, full curve, poor fit].

As for `O=C(CCl)N(Cc1cc(=O)[nH]c2ccccc12)c1ccccc1`, under setting [1], the AC50 was 2.82 µM [falling, full curve, poor fit]. In the case of `Cc1cc(=O)oc2cc(NC(=O)C3CCCC3)ccc12`, under setting [1], the AC50 was 4.47 µM [rising, partial curve, poor fit].

`CCC(Sc1nnc(-c2ccc(OC)cc2)c(-c2ccc(OC)cc2)n1)C(=O)Nc1cccc(OC)c1` (stereo unspecified): the AC50 under setting [1] is 2.24 µM [rising, partial curve, poor fit].

Turning to `Oc1ccc(/C=N/Nc2nn3cnnc3c3ccccc23)cc1`, the AC50 under setting [1] was 5.01 µM [falling, partial curve]. The same measure, in the same setting: the value for `CN(CCO)C(=O)c1c(NC(=O)c2ccccc2)sc2c1CCCC2` was 10 µM [falling, partial curve, poor fit].

With `CC(C)CN(C(=O)COC(=O)C12CC3CC(CC(O)(C3)C1)C2)C1CCS(=O)(=O)C1` (stereo unspecified), the AC50 under setting [1] was 35.5 µM [rising, partial curve, poor fit]. In the case of `COc1cccc(N=CC2=C(O)CC(C)(C)CC2=O)c1`, the AC50 under setting [2] was 16.4 µM [falling, single point]. For `Cc1csc2c(N3CCN(C(=O)Nc4ccccc4)CC3)ncnc12`, under setting [1], the AC50 was 3.16 µM [rising, partial curve]. `CCCCCCc1nc2c(=O)[nH]c3ccccc3c2o1`: the AC50 is 29.1 µM [falling, single point] under setting [1] and 32.6 µM [rising, partial curve, poor fit] under setting [2]. Turning to `O=C1CC(N2CCN(Cc3ccc4c(c3)OCO4)CC2)C(=O)N1CCc1ccccc1` (stereo unspecified), the AC50 under setting [1] is 0.164 µM [falling, full curve, poor fit].
